Data on 11 targets can be found in the supplement of paper PMC12819154, “High-throughput peptide-centric local stability assay extends protein–ligand identification to membrane proteins, tissues and bacteria” (Nature Structural & Molecular Biology, 2025).

Chains of the proteins cited; added tags and fusions are not shown. Lines headed by an entry give the natural chain unless they say otherwise; changes in a name come on top.
UniProt P0C7X2: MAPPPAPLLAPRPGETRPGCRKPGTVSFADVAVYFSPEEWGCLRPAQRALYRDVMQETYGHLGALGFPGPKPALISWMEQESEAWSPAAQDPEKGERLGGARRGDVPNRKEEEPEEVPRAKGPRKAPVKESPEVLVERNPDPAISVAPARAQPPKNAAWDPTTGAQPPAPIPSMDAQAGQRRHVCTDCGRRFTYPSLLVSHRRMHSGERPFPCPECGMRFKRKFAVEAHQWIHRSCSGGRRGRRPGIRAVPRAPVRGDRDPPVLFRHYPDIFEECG
UniProt P04731: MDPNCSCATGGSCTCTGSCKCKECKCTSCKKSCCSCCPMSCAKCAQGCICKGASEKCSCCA
UniProt P0CI00: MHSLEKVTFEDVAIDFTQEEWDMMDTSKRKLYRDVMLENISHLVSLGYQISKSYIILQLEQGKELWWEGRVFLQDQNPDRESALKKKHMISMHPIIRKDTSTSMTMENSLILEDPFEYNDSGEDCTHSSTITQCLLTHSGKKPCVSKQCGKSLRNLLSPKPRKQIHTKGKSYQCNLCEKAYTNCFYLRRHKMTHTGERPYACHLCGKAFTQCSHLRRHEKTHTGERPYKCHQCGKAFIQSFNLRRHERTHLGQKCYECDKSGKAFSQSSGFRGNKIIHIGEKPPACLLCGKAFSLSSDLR
UniProt P11166: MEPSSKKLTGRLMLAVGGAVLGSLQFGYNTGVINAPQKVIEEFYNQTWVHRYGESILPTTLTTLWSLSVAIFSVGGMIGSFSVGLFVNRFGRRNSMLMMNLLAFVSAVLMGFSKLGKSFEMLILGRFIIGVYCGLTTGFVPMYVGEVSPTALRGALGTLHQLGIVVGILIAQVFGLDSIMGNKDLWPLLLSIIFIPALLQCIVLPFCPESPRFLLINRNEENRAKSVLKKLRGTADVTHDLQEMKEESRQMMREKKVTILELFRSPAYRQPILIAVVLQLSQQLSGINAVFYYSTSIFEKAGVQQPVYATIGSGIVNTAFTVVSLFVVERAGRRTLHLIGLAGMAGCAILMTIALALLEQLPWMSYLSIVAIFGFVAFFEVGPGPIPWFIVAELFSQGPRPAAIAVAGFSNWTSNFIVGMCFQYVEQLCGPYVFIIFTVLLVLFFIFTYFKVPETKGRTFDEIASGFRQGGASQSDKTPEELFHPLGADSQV
UniProt P00966: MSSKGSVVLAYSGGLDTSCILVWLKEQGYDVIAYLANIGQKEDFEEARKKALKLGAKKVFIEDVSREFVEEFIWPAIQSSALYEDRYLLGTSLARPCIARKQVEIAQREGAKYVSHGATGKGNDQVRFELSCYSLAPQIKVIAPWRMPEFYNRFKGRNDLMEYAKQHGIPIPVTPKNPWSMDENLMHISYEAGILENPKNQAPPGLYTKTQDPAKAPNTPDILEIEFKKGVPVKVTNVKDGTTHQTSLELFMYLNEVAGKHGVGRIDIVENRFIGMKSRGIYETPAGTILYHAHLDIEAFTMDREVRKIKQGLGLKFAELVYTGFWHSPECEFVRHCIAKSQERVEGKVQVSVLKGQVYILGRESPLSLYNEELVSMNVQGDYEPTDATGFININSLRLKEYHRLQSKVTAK
UniProt P13073, whole entry: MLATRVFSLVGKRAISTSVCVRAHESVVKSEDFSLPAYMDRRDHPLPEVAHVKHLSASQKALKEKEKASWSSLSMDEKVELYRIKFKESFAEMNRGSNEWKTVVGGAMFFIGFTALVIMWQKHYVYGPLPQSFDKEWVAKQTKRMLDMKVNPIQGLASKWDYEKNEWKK
UniProt P02724: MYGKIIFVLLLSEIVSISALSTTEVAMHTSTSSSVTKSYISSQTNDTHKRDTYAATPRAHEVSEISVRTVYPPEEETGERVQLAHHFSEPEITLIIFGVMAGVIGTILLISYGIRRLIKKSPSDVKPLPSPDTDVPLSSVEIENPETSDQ
UniProt P07737, whole entry: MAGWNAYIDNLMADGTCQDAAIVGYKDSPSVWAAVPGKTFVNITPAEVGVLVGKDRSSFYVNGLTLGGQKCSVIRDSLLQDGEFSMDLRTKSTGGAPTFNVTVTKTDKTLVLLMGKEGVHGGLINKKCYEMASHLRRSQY
UniProt P10606, whole entry: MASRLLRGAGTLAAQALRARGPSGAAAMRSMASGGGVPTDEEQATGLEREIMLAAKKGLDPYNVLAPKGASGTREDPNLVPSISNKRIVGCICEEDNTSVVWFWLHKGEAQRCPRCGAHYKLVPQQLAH
UniProt P02649, whole entry: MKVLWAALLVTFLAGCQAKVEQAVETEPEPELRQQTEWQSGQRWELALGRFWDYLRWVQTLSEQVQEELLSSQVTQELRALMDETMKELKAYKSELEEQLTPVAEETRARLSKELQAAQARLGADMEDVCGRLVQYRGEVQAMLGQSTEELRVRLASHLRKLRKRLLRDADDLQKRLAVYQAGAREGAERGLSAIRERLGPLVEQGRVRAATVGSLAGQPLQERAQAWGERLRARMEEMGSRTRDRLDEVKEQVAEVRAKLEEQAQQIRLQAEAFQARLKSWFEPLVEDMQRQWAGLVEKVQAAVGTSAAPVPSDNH

Some of the results follow. Most entries show no effect beyond the scatter of the controls.

Compound in the test: CN[C@@H]1C[C@H]2O[C@@](C)([C@@H]1OC)n1c3ccccc3c3c4c(c5c6ccccc6n2c5c31)C(=O)NC4 [staurosporine]
The test can be described thus: log2 fold change of tryptic peptide abundance, ligand vs vehicle (limited proteolysis) (log2 ratio); higher = more trypsin-susceptible (destabilized). Conditions: ligand concentration: 20 uM; sample: K562 cleared lysate; digestion: 4 min, 22 C (HT-PELSA RT4min, Orbitrap Astral).
Take “ZNF688 (peptide sequence: NPDPAISVAPAR, peptide start residue: 139) (UniProt P0C7X2)”: the log2 fold change is -0.206.
To “UniProt P04731 (peptide sequence: CAQGCICK, peptide start residue: 44)” belongs -0.0444; to “UniProt P0CI00 (peptide sequence: THTGERPYK, peptide start residue: 310)”, -0.121; to “SLC2A1 (peptide sequence: TFDEIASGFR, peptide start residue: 459) (UniProt P11166)”, -0.581.
Take “ASS1 (peptide sequence: MPEFYNR, peptide start residue: 147) (UniProt P00966)”: the log2 fold change is 0.231.
In the case of “GPI (peptide sequence: NLVTEDVMR, peptide start residue: 58) (UniProt P06744)”, the log2 fold change was -0.239.
For the target “COX4I1 (peptide sequence: FKESFAEMNR, peptide start residue: 86) (UniProt P13073)”, the log2 fold change is -0.61.
In the case of “GYPA (peptide sequence: SYISSQTNDTHKR, peptide start residue: 38) (UniProt P02724)” it was -0.168.
On to “PFN1 (peptide sequence: EGVHGGLINKK, peptide start residue: 117) (UniProt P07737)”, for which the log2 fold change was determined as 0.47.
“COX5B (peptide sequence: EDPNLVPSISNKR, peptide start residue: 75) (UniProt P10606)”: the log2 fold change came to 0.213.
Take “APOE (peptide sequence: LAVYQAGAR, peptide start residue: 177) (UniProt P02649)”: the log2 fold change was 0.205.
